Measurements as given in patent publication US11529424B2, “Synthetic bioconjugates” (Symic Holdings, Inc., priority 2017, dated 2022).
These are yes or no findings as the source states them, for the method shown. Binding can be weak; no strength is given.

B1: … (Peptide X), binding domain without spacer (peptide)
peptide: GQLYKSILYGSG
B2: … (vWF-2× with GSGSGSRR spacer) (peptide)
peptide: WREPSFSALSGSGSGSRR
B3: … (vWF-2×) (peptide)
peptide: WREPSFSALS
B4: Spacer A (peptide)
spacer peptide without collagen-binding unit: GSGSGSRR

Target: Collagen Type I
Test: Collagen Type I coated plate assay, streptavidin-HRP, A450

binding, binds:
B1
B2
B3

Target: Collagen Type I
Test: Collagen Type I adsorbed on high-bind plate, streptavidin-HRP/TMB, absorbance at 450 nm; EC50 given as ratio to the reference Compound 10 (Example 6)

binding, binds:
B1
B4
B2
B3
